Where two headings read alike, the source gives them in different places. No constants are given. Whether binding was seen depends on the method and setting. Binding seen in cells or lysates may run through a third protein. A yes stands for co-enrichment or nearness to the bait. Other partners may have been found. For some assays here: No binding means not detected with the bait. Where a sequence is shown, tags or fusion partners need not be part of it. Values belong to the molecule of their own block, whether it stands above or below them.
Tests used:
Assay in all cases: affinity purification with mass spectrometry; 3×FLAG- or 13×myc-tagged bait purified from S. pombe cell extract on α-FLAG (M2) or α-myc (9E10) antibody cross-linked to Protein G Dynabeads, 4°C for 3 h, IP buffer (20 mM HEPES pH 7.5, 100 mM NaCl, 5 mM MgCl2, 1 mM EDTA, 10% glycerol, 0.25% Triton X-100, 0.5 mM DTT); LC-MS/MS; Red1-3×FLAG also from iss10Δ, rmn1Δ and Mtl1 knockdown cells
Mtl1-3×FLAG (S. pombe) [1] = target: T1, Mtl1-3×FLAG (S. pombe) (UniProt O13799)
T1 sequence: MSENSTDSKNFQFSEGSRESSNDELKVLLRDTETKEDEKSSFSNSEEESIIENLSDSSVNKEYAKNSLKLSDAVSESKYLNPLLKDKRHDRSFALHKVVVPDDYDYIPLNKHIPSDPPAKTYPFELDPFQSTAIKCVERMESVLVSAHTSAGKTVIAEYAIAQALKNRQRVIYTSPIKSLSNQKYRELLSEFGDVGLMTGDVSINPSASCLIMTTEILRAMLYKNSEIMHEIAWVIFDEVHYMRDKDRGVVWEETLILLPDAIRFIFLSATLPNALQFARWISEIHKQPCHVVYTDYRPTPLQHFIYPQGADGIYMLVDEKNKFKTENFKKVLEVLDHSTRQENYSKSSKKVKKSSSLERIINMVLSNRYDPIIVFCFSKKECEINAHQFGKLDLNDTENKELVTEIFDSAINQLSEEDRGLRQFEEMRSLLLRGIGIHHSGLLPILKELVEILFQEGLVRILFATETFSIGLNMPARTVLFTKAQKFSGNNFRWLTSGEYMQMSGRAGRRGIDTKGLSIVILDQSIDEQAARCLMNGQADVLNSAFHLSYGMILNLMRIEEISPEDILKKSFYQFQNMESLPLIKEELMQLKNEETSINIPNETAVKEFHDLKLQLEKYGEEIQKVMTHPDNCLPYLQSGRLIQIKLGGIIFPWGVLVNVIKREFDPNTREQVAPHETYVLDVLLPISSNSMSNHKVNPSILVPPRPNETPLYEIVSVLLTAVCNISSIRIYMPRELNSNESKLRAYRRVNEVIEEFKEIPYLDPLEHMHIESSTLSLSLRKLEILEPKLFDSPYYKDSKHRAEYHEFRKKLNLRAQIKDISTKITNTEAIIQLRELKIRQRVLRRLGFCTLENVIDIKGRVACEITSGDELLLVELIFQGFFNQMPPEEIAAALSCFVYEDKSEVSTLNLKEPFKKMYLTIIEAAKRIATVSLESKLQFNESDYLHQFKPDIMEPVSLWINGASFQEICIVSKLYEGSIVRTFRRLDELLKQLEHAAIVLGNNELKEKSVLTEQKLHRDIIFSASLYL

Chains of the proteins cited; added tags and fusions are not shown.
UniProt O60016: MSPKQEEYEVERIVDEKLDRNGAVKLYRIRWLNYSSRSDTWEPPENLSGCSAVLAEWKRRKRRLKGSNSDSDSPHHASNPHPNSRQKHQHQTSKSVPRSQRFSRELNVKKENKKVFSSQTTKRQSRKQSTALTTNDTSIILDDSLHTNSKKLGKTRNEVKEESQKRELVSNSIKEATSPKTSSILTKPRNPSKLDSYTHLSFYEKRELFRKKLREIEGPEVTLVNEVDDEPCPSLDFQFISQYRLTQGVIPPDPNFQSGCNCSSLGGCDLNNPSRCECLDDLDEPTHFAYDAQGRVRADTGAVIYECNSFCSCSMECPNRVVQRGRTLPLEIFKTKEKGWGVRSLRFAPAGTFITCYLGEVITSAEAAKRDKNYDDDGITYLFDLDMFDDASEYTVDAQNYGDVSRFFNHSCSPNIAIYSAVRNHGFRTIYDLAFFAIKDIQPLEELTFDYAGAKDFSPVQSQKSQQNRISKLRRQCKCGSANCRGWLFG

Mtl1-3×FLAG (S. pombe) [2] = target: T1, Mtl1-3×FLAG (S. pombe); remark: listed apart in the source
Rmn1-13×myc (S. pombe) = target: T2, Rmn1-13×myc (S. pombe) (UniProt Q9USP9)
T2 sequence: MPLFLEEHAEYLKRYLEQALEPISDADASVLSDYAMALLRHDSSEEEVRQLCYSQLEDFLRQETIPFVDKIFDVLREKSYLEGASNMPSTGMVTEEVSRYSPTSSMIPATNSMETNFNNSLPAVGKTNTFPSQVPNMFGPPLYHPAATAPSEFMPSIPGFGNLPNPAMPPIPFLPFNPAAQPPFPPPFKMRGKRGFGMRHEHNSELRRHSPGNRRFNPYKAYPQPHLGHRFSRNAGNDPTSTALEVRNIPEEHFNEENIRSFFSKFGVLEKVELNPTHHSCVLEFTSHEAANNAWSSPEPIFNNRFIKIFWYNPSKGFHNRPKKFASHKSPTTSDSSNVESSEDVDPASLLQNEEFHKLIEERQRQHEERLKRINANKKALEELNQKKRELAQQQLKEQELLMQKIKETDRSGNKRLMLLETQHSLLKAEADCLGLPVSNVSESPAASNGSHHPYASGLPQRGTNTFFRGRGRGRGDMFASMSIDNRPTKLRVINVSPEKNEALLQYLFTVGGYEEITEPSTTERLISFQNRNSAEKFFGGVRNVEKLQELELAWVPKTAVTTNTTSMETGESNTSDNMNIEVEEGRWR

binding (Mtl1-3×FLAG (S. pombe) [1]): no binding
Molecule: Clr4 (from UniProt O60016 1-490)

binding (Mtl1-3×FLAG (S. pombe) [2]): binds
binding (Rmn1-13×myc (S. pombe)): binds
B1: Pab2 (protein, UniProt O14327 1-166)
chain: MSDQDALDTQEKELLEMKERVAEMEAEAAKLRAMQEQLDNETEALRNDKESIDAQSVYVGNVDYSVTPEELQSHFASCGSVNRVTILCDKFTGHPKGFAYIEFSEPSLVPNALLLNGSMLHERPLKVTPKRTNVPGMSRGRGRGRGRGRGRGRGGYRGRARGFAPY

binding (Mtl1-3×FLAG (S. pombe) [2]): binds
binding (Rmn1-13×myc (S. pombe)): binds
B2: Pla1 (protein, UniProt Q10295 1-566)
chain: MTTKQWGITPPISTAPATEQENALNTALINELKNQNLFESPAESEKRVKVLDELQQITTEFVKKVSLAKHMNEKMANEAGGKIFTYGSYRLGVYGPGSDIDTLVVVPKHVSRDNFFQDLEPMLREREEVTDLAAVPDAYVPIIKFKFLGISIDLIFARLSVPRVPRDLELSDNNLLKGVEERCVLSLNGTRVTDQILQLVPNRAVFKHALRAIKFWAQRRAIYANVVGFPGGVAWAMMVARICQLYPNAVSSVIVAKFFRILHQWNWPQPILLKPIEDGPLQVRIWNPKLYPSDKAHRMPIITPAYPSMCATHNITLSTQTIILREMVRAGEIADQIMVKALPWSALFQKHDFFHRYKHYLTITAAAKTAEAQLKWAGLVESKLRHLVTRLELVDAIALAHPFNKGFDKVYNCSSEEEAQQVASGVTLEVAYESTDHEKLANDTVNEEKADNTESKADGSENGEKQIFPVYTTTCYIGLELEKKKGHPIKRLDISWPTQEFYELCKKWDKYDDTLMNVFIKNTKNTALPDEVFEPGEERPKATKKRSTADTAHSTEQLKRQKVSTA
